In the supplement of paper PMC12873370 one finds cell viability data, which are given here for 15 compounds.

Molecules are shown by their SMILES. The list shows a part of the results. Repeats are few or missing, and single values can be far off.

In assay [1] the test system is MEPP (mouse ovarian epithelium Trp53/Pten KO). The experiment in a line: cell viability relative to untreated (fraction); higher = less growth inhibition. To be noted: 5 µM; 3 days.
The subject of assay [2] is PREPP (mouse prostate epithelium Trp53/Pten KO). The assay is described as above. To be noted: 5 µM; 3 days.

Take `Nc1ncn([C@@H]2O[C@H](CO)[C@@H](O)[C@H]2O)c(=O)n1`: the cell viability turned out to be 0.829 in assay [1] and 0.898 in assay [2].

Consider `O=S(=O)(c1cccc2cnccc12)N1CCCNCC1`, for which the cell viability worked out at 0.884 in assay [1] and 1.16 in assay [2].

Take `Cc1ccc2nc(NCCN)c3ncc(C)n3c2c1`: the cell viability worked out at 0.799 in assay [1] and 0.753 in assay [2].

Take `CC(C)N(CCCNC(=O)Nc1ccc(C(C)(C)C)cc1)C[C@H]1O[C@@H](n2cc(Br)c3c(N)ncnc32)[C@H](O)[C@@H]1O`: the cell viability in assay [1] amounted to 0.806; in assay [2], 1.06.

On to `O=C(O)CCNc1cc(N2CCc3ccccc3CC2)nc(-c2cccnc2)n1`, for which the cell viability in assay [1] came out at 0.977; in assay [2] it was 0.998.

Regarding `CCCCN(Cc1ccc(C(=O)NO)cc1)C(=O)Nc1ccccc1`, the cell viability is 0.869 in assay [1] and 0.8 in assay [2].

In the case of `O=C(Nc1nc2cccc(-c3ccc(CN4CCS(=O)(=O)CC4)cc3)n2n1)C1CC1`, the cell viability in assay [1] amounted to 0.843; in assay [2] it was 0.746.

On to `O=S(=O)(c1cccc2cnccc12)N1CCNCC1`, for which the cell viability was 0.875 in assay [1] and 0.771 in assay [2].

Consider `CC(=O)Nc1ccc(NC(=S)NC(=O)c2ccc(C(C)(C)C)cc2)cc1`, for which the cell viability in assay [1] worked out at 0.421; in assay [2], 0.603.

For `CC(C)Oc1ccc(-c2c[nH]cc2CN(C)CCN)cc1`, the results for the cell viability in assay [1] and in assay [2] were 1.03 and 1.02, respectively.

Take `COc1cc2c(NC3CCN(CC4CCCCC4)CC3)nc(N3CCCN(C(C)C)CC3)nc2cc1OCCCN1CCCCC1`: the figures for the cell viability in assay [1] and in assay [2] were 0.797 and 0.835, respectively.

`Nc1ccc(S(=O)(=O)NCCc2ccccc2)cc1`: the results for the cell viability in assay [1] and in assay [2] were 0.936 and 0.982, respectively.

Turning to `Cc1cc(C)nc(SCC(=O)Nc2ncc(Cc3cccc4ccccc34)s2)n1`, the cell viability in assay [1] worked out at 1.1; in assay [2], 1.01.

Consider `Nc1cc(F)ccc1NC(=O)c1ccc(CNC(=O)/C=C/c2cccnc2)cc1`, for which the cell viability in assay [1] was 0.967; in assay [2], 0.839.

As to `O=C(NN=Cc1c(O)ccc2ccccc12)c1ccncc1`, the cell viability in assay [1] was determined as 0.503; in assay [2], 0.652.
